Results are given in words; binding and its absence hold for the method and conditions named. Binding seen in cells or lysates may run through a third protein. Some binding calls cover weakened binding; strength is not graded here.
Experiments:
Myc-VN155-PRMT5 = Myc-VN155-PRMT5 (UniProt O14744); assay: split reporter; BiFC: Myc-VN155-PRMT5 and HA-VC155-TRIM21 cotransfected with Cerulean into U2 OS cells for 48 h; cells fixed, reconstituted Venus seen by confocal microscopy
[1] = biological target: Protein arginine methyltransferase 5 (PRMT5), endogenous in U2 OS cells (human (endogenous in U2 OS)) (UniProt O14744); assay: co-IP; endogenous proteins in U2 OS lysate; precleared extract incubated with 5 ug antibody against PRMT5 or IgG overnight at 4°C, protein A beads, five washes with lysis buffer, Western blot

The chains behind the UniProt entries cited, without tags or fusion partners.
UniProt O14744: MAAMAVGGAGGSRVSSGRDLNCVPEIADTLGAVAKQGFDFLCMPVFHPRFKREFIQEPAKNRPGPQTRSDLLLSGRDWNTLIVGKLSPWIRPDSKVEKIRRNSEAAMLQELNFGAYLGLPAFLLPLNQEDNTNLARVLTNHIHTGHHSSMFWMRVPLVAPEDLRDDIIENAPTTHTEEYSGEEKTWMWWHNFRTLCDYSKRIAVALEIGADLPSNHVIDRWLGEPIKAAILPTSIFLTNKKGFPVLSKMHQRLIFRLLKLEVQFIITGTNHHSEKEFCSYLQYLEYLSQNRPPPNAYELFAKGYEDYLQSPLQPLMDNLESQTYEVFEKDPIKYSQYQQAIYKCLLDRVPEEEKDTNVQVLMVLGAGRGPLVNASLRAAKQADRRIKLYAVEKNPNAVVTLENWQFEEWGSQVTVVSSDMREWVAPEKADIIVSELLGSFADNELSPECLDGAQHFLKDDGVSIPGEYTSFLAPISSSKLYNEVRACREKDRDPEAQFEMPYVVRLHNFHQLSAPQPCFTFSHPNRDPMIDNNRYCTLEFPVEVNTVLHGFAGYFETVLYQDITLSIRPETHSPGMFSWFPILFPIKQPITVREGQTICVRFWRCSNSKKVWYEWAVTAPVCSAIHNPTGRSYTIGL
UniProt P19474: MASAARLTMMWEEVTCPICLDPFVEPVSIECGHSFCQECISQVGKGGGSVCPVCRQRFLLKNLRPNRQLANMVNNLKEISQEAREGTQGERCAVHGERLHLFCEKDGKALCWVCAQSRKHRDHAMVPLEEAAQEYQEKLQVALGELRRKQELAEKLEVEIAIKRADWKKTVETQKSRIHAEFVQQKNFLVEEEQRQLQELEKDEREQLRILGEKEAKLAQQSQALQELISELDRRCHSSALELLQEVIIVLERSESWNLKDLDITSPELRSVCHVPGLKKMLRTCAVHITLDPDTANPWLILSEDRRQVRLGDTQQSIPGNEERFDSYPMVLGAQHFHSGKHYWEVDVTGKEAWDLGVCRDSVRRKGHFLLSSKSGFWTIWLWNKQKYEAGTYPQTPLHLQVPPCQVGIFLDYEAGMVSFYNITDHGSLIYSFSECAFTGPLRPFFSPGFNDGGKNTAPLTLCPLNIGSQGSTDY

binding (Myc-VN155-PRMT5) | binding [1] | Substance
binds |  | HA-VC155-TRIM21 (from UniProt P19474 1-475)
 | binds | TRIM21, endogenous in U2 OS cells (from UniProt P19474 1-475)
